Data as given in PubChem BioAssay AID1224826 (NIAID, 2016).

Screen: 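Knock-downs that raise or lower Tnf reporter signal after endotoxin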 (primary screen)
Cell system: RAW264.7 G9 macrophages from mouse bearing reporters for p65 (GFP) and the Tnf promoter (mCherry)
Reagent: siRNA pool against mouse genes, 100 nM
Time to read-out: 16 h of LPS stimulation, after 2 days of siRNA transfection
Conditions: bacterial lipopolysaccharide (Salmonella minnesota R595), 10 ng/ml
Read-out: 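Imaged Tnf reporter mCherry in nuclei, minus background, normalised per plate to the median and expressed as robust z-scores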
Reading the numbers: Tnf reporter robust z-score: higher = stronger Tnf promoter reporter signal after LPS
Rule for the call: 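Called active when robust z-score is at most -1.3, matching the median of the Tlr4 knock-down control, or over 3; control wells and wells with under 50 cells never active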
Calls: active = Tnf reporter clearly lowered or raised; inactive = no clear change in Tnf reporter
This is an unselected part of about 17,000 reagents. Of all reagents, about 1,110 (6.6%) got an active call. 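Active means lowered or raised reporter signal; replicate intensities are raw and not normalised per plate.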 The numbers tell different reagents against one gene apart. Not all columns of the deposit are shown.

gene knocked down	reagent	Tnf reporter robust z-score	fewer than 50 cells in well	outcome
Svopl	1	-1.52	enough cells in well	active
Ifi202b	1	-0.89	enough cells in well	inactive
Ndn	1	0.1	enough cells in well	inactive
Magix	1	-0.15	enough cells in well	inactive
Txnrd2	1	-0.08	enough cells in well	inactive
Ablim3	1	2.46	enough cells in well	inactive
Ly6g6d	1	0.81	enough cells in well	inactive
Ly6g6d	2	-1.84	enough cells in well	active
Cul4b	1	0.11	enough cells in well	inactive
Neil2	1	4.51	enough cells in well	active
Mylk3	1	-1.33	enough cells in well	active
Ccdc54	1	-1.25	enough cells in well	inactive
Slc35d2	1	-1.11	enough cells in well	inactive
Ints8	1	-0.32	enough cells in well	inactive
Neil3	1	-1.26	enough cells in well	inactive
Rln1	1		fewer than 50 cells per well; well left out of calls	inactive
Dnajb6	1	2.9	enough cells in well	inactive
Pcdhgb5	1	-0.14	enough cells in well	inactive
Prcp	1	0.05	enough cells in well	inactive
Cep85	1	0.16	enough cells in well	inactive
Ttc17	1		fewer than 50 cells per well; well left out of calls	inactive
Hnrnpab	1	0.09	enough cells in well	inactive
Slc12a4	1	-0.06	enough cells in well	inactive
Cyp2c65	1	-1.61	enough cells in well	active
Adamts3	1	1.35	enough cells in well	inactive
Dmkn	1	0.12	enough cells in well	inactive
Prss45	1	-0.1	enough cells in well	inactive
Dppa3	1		fewer than 50 cells per well; well left out of calls	inactive
Hoxa2	1	-1.29	enough cells in well	inactive
Bpifa2	1	-1.39	enough cells in well	active
Cep70	1	0.31	enough cells in well	inactive
Ighmbp2	1	-1.02	enough cells in well	inactive
Fchsd2	1	0.76	enough cells in well	inactive
Uchl4	1	1.75	enough cells in well	inactive
Ggnbp2	1	1.81	enough cells in well	inactive
Or2v1	1	-0.72	enough cells in well	inactive
Scrn2	1	0.35	enough cells in well	inactive
D930048N14Rik	1	0.32	enough cells in well	inactive
Or1b1	1	-0.56	enough cells in well	inactive
Phospho1	1	-0.84	enough cells in well	inactive
Or1s2	1	0.36	enough cells in well	inactive
B630019K06Rik	1	0.46	enough cells in well	inactive
Prl8a9	1	0.18	enough cells in well	inactive
Rsad2	1	0.29	enough cells in well	inactive
Clps	1	1.33	enough cells in well	inactive
Or51l4	1		fewer than 50 cells per well; well left out of calls	inactive
Tmem218	1		fewer than 50 cells per well; well left out of calls	inactive
Tmprss11d	1	-0.96	enough cells in well	inactive
Lonp2	1		fewer than 50 cells per well; well left out of calls	inactive
Ube2l6	1	0.03	enough cells in well	inactive
Adcy3	1	0.46	enough cells in well	inactive
Tbx20	1	0.28	enough cells in well	inactive
BC035947	1	-0.51	enough cells in well	inactive
Fgf3	1	0.58	enough cells in well	inactive
Fam13a	1	0.17	enough cells in well	inactive
Mlx	1	1.28	enough cells in well	inactive
Bex3	1	0.12	enough cells in well	inactive
Ly6a	1	-0.28	enough cells in well	inactive
Gemin6	1	-0.35	enough cells in well	inactive
Ssb	1	-1.58	enough cells in well	active
Cct6b	1	-0.08	enough cells in well	inactive
Ssr3	1	-0.47	enough cells in well	inactive
Tnfsf14	1	-1.43	enough cells in well	active
Srp14	1		fewer than 50 cells per well; well left out of calls	inactive
Adamts5	1	1.83	enough cells in well	inactive
Dusp13b	1	0.06	enough cells in well	inactive
Rab11a	1	0.51	enough cells in well	inactive
Chst15	1		fewer than 50 cells per well; well left out of calls	inactive
Rnh1	1	-1.04	enough cells in well	inactive
Ndfip2	1	-0.38	enough cells in well	inactive
Itgam	1	0.11	enough cells in well	inactive
Dcaf8	1	-0.03	enough cells in well	inactive
Plekhj1	1	-0.63	enough cells in well	inactive
Tcaf2	1	-0.85	enough cells in well	inactive
Vax1	1		fewer than 50 cells per well; well left out of calls	inactive

In a second layout: entries from further up
gene knocked down | reagent | Tnf reporter robust z-score | fewer than 50 cells in well | outcome
Prss45 | 1 | -0.1 | enough cells in well | inactive
Dppa3 | 1 | – | fewer than 50 cells per well; well left out of calls | inactive
Hoxa2 | 1 | -1.29 | enough cells in well | inactive
Bpifa2 | 1 | -1.39 | enough cells in well | active
